Data as given in PMC7307841.

Target: T1, NOR (NAC-NOR) (UniProt A0A3Q7J5X6)
T1 sequence (looked up, limits assumed): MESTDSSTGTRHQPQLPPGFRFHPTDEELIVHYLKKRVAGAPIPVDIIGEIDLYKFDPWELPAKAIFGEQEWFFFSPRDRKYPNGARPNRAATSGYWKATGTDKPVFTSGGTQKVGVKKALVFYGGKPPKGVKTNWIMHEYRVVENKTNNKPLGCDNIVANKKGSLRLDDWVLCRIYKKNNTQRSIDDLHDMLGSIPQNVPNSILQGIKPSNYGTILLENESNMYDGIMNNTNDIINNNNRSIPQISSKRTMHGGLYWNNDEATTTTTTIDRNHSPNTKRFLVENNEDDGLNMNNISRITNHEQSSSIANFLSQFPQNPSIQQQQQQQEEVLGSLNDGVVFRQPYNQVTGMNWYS
Test: EMSA
Details: EMSA on native polyacrylamide gel as in Han et al. 2016 and Tan et al. 2018; pH and temperature not stated; recombinant protein; protein details: N-terminal …; label: biotin 3' end

Binding result, binds:
AATAAATTCTTTTTGACAGGGTGGCGTAAAAATAATTTTATTTTAAAATA (double strand) [SlACS2 wild probe]
TATCAATAACAGATAGTAATTTTACGTAATGATATTGAACGATGTATATA (double strand) [SlPL wild probe]
TACGTTTAGGATAGGACTTCATTACGTGTCAAGGACAAAAATAAACCTAT (double strand) [SlGgpps2 wild probe]

For at least one entry, the source does not settle the construct or the ends of the probe. At least one verdict was read from the data and is not stated in words by the source. Where a protein sequence is shown, tags need not be part of it.
